Experimental data reported in paper PMC11352776.
No constants are given. Whether binding was seen depends on the method and setting. Binding seen in cells or lysates may run through a third protein. Here binding means that the protein was enriched with, or labelled near, the bait; the list need not be complete. Where a sequence is shown, tags or fusion partners need not be part of it.

Sequences of proteins named here, by UniProt entry; tags and fusion partners are left off. Residues count along the entry.
UniProt Q3UHK6: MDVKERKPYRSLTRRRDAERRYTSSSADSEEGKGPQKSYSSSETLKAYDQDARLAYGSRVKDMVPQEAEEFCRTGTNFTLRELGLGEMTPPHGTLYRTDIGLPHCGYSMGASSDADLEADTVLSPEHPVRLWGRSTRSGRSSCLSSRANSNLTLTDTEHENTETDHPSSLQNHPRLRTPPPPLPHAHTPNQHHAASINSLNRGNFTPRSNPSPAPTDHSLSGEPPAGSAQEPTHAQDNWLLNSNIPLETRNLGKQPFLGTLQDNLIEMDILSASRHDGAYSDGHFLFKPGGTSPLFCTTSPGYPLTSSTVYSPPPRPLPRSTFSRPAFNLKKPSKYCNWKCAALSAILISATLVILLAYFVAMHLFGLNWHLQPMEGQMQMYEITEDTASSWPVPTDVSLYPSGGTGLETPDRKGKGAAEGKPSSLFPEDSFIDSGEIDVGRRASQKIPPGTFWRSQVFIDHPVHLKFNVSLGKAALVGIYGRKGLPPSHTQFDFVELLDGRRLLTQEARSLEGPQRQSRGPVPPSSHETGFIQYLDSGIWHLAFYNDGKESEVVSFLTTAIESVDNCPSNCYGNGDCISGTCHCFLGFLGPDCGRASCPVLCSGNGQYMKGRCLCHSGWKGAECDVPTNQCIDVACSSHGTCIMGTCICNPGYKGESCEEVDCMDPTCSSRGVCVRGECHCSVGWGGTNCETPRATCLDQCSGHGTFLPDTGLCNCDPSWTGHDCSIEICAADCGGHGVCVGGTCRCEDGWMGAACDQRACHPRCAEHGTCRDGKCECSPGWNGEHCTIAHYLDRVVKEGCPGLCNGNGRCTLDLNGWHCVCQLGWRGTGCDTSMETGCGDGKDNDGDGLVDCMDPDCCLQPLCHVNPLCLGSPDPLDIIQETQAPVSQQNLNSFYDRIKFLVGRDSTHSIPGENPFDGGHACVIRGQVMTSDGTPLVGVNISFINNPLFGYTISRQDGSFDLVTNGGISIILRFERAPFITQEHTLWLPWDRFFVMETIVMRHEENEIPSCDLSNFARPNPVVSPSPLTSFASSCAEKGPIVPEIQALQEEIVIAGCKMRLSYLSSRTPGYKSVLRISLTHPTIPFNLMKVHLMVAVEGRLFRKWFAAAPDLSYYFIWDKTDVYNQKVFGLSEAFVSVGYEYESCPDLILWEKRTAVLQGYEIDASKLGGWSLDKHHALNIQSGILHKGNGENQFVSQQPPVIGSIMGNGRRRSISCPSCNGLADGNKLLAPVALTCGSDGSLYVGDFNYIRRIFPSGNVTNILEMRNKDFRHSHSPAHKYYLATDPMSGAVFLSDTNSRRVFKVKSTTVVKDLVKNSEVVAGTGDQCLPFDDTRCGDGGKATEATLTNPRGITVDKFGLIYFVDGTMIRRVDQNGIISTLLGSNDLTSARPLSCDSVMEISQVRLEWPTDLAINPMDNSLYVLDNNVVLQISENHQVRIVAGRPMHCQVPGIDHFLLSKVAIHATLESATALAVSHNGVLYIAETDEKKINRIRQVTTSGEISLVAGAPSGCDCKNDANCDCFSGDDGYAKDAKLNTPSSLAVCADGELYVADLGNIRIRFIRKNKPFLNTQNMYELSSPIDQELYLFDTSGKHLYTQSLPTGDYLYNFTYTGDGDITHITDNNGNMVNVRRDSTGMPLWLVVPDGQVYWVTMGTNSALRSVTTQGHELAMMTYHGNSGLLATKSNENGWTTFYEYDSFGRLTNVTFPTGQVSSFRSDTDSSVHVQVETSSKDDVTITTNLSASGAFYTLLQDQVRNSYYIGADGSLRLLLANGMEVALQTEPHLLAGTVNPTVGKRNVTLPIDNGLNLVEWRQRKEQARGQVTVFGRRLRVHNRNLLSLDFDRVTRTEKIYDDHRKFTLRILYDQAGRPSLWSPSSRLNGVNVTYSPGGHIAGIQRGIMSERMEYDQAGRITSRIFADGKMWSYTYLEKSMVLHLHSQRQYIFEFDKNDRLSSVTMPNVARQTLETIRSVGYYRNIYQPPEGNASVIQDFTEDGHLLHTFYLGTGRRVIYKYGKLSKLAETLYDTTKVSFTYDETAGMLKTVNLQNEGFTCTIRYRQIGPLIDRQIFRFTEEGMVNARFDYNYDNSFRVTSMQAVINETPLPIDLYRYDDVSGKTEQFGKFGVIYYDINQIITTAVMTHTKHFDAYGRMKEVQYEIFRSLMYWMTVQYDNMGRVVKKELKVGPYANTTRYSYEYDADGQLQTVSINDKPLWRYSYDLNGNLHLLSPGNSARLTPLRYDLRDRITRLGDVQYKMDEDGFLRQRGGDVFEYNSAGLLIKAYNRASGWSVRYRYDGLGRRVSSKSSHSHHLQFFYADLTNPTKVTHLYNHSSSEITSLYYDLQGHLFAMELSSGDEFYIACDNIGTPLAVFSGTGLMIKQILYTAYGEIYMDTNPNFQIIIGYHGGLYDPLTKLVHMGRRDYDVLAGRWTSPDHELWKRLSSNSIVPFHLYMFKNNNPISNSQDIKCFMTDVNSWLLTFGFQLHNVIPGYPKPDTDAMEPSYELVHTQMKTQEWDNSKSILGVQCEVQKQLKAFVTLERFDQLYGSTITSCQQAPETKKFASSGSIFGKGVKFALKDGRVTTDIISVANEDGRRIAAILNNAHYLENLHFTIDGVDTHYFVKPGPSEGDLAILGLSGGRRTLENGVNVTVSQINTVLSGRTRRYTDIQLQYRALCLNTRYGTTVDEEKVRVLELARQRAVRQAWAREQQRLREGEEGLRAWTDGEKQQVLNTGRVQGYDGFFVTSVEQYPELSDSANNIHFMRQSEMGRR
UniProt E9PVD3, residues 36-3291: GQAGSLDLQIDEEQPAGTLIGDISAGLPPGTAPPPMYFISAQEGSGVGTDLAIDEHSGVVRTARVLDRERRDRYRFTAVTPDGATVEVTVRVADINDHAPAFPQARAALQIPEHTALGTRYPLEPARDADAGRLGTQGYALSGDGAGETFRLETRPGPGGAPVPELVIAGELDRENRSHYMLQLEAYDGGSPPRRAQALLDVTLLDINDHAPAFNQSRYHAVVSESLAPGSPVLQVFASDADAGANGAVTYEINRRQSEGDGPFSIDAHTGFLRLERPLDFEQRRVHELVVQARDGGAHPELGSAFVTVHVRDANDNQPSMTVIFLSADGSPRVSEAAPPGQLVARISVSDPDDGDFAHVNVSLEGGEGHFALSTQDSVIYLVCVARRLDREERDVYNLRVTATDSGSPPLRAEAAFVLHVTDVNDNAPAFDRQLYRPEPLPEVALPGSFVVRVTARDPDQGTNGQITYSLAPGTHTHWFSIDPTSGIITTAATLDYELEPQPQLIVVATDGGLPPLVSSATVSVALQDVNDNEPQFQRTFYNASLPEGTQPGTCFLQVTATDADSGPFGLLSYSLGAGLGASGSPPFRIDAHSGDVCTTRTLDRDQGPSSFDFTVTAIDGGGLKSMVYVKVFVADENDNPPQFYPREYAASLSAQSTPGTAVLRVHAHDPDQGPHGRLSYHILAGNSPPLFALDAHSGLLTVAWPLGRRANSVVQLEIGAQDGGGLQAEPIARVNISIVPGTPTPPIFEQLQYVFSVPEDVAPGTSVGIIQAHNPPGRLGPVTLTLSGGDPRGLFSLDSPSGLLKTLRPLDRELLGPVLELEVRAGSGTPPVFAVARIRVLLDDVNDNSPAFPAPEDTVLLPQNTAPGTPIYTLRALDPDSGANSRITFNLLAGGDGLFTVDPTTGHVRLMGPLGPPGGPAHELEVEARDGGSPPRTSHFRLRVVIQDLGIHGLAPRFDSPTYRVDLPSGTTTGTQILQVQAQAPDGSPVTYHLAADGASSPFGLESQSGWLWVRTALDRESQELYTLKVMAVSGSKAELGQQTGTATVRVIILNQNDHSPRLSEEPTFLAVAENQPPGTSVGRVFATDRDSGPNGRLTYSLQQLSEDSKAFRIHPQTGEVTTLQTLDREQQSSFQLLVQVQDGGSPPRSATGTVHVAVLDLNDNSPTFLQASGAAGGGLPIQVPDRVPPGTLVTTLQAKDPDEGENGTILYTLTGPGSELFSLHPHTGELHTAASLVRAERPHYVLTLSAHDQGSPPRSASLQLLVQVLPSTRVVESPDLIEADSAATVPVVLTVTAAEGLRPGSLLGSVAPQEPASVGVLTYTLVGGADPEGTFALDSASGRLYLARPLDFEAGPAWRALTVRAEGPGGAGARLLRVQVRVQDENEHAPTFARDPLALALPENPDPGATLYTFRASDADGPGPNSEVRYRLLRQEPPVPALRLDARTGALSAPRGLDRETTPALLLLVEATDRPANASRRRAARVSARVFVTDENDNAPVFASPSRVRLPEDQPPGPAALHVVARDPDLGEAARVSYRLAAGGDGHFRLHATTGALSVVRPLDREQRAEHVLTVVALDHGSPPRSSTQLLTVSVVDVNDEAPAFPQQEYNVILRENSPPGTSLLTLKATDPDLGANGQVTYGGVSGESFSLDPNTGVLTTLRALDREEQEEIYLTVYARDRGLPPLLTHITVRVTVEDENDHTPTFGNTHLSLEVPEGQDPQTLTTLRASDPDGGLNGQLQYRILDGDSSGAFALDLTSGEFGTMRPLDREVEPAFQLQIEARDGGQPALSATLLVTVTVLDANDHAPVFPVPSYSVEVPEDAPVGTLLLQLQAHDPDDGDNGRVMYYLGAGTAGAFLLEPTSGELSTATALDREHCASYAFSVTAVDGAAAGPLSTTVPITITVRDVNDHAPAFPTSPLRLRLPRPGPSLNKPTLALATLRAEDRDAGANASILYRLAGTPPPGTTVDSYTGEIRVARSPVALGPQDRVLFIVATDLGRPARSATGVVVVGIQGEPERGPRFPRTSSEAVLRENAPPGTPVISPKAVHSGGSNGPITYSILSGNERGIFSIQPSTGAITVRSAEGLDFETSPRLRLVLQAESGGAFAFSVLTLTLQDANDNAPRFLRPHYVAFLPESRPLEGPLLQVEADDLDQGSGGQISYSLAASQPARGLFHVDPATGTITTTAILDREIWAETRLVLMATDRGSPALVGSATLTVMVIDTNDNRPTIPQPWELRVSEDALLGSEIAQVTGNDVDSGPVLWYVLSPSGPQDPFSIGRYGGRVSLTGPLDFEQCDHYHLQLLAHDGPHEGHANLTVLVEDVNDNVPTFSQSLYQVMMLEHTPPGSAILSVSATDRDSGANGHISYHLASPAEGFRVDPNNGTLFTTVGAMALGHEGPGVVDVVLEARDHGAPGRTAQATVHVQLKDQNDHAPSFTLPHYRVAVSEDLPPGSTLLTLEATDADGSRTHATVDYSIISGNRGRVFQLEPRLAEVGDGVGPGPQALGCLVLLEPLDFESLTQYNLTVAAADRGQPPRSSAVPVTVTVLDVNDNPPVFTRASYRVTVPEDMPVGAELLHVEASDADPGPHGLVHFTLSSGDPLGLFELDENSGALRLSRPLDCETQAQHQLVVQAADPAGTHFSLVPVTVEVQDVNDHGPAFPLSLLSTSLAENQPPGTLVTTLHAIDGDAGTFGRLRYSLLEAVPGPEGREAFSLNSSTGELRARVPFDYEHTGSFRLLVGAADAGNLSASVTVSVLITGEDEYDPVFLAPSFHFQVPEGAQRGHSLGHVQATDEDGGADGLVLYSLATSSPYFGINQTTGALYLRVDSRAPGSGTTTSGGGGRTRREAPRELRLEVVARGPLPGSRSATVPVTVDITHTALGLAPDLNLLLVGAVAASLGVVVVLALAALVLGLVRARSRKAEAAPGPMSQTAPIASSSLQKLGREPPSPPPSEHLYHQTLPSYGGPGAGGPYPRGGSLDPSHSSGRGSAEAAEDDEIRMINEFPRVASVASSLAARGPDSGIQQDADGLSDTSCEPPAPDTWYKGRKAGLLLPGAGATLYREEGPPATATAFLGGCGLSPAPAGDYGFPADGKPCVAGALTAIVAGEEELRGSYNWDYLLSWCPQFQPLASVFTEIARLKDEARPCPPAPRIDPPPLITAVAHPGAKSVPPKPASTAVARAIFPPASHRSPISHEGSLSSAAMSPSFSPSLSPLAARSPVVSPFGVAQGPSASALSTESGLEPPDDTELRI

T1: signal peptide sequence-deleted mouse LOTUS having streptavidin-binding protein (SBP)- and FLAG-tag at the N terminus (SBP-FLAG-LOTUS), overexpressed in Neuro2A cells (mouse) (UniProt Q8R555)
T1 sequence: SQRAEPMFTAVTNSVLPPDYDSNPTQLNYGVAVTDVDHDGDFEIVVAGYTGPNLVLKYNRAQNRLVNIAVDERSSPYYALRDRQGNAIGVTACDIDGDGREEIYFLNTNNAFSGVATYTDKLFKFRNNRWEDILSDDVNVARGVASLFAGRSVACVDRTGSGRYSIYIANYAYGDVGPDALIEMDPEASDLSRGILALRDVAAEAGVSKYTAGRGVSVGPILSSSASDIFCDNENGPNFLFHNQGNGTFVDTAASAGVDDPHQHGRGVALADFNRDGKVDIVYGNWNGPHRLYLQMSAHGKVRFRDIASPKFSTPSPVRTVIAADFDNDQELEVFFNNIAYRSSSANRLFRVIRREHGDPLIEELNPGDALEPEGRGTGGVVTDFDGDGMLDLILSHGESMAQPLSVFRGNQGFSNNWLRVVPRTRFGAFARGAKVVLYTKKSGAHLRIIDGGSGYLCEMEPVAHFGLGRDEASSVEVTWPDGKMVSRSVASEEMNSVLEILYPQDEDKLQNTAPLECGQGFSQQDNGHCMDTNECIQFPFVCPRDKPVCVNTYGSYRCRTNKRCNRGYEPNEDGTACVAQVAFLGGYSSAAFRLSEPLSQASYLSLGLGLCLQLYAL

B1: Integrin alpha-6 (endogenous, Neuro2A cells) (protein, UniProt Q61739 24-1091)
chain: FNLDTREDNVIRKSGDPGSLFGFSLAMHWQLQPEDKRLLLVGAPRAEALPLQRANRTGGLYSCDITSRGPCTRIEFDNDADPMSESKEDQWMGVTVQSQGPGGKVVTCAHRYEKRQHVNTKQESRDIFGRCYVLSQNLRIEDDMDGGDWSFCDGRLRGHEKFGSCQQGVAATFTKDFHYIVFGAPGTYNWKGIVRVEQKNNTFFDMNIFEDGPYEVGGETDHDESLVPVPANSYLGFSLDSGKGIVSKDDITFVSGAPRANHSGAVVLLKRDMKSAHLLPEYIFDGEGLASSFGYDVAVVDLNADGWQDIVIGAPQYFDRDGEVGGAVYVYINQQGKWSNVKPIRLNGTKDSMFGISVKNIGDINQDGYPDIAVGAPYDDLGKVFIYHGSPTGIITKPTQVLEGTSPYFGYSIAGNMDLDRNSYPDLAVGSLSDSVTIFRSRPVINILKTITVTPNRIDLRQKSMCGSPSGICLKVKACFEYTAKPSGYNPPISILGILEAEKERRKSGLSSRVQFRNQGSEPKYTQELTLNRQKQRACMEETLWLQENIRDKLRPIPITASVEIQEPSSRRRVNSLPEVLPILNSNEAKTVQTDVHFLKEGCGDDNVCNSNLKLEYKFGTREGNQDKFSYLPIQKGIPELVLKDQKDIALEITVTNSPSDPRNPRKDGDDAHEAKLIATFPDTLTYSAYRELRAFPEKQLSCVANQNGSQADCELGNPFKRNSSVTFYLILSTTEVTFDTTDLDINLKLETTSNQDNLAPITAKAKVVIELLLSVSGVAKPSQVYFGGTVVGEQAMKSEDEVGSLIEYEFRVINLGKPLKNLGTATLNIQWPKEISNGKWLLYLMKVESKGLEQIVCEPHNEINYLKLKESHNSRKKRELPEKQIDDSRKFSLFPERKYQTLNCSVNVRCVNIRCPLRGLDSKASLVLRSRLWNSTFLEEYSKLNYLDILLRASIDVTAAAQNIKLPHAGTQVRVTVFPSKTVAQYSGVAWWIILLAVLAGILMLALLVFLLWKCGFFKRSRYDDSIPRYHAVRIRKEEREIKDEKHMDNLEKKQWITKWNENESYS
B2: Integrin alpha-Iib (endogenous, Neuro2A cells) (protein, UniProt Q9QUM0 32-1033)
chain: LNLDSEKFSVYAGPNGSHFGFSVDFHKDKHGSVSIVVGAPRALNASQEETGAVFLCPWKANGGKCNPLLFDLRDETRNLGFQIFQTFKTGQGLGASVVSWNDVIVACAPWQHWNVLEKRDEAEKTPVGGCFLAQLQSGGRAEYSPCRANTMSSVYAESFRGDKRYCEAGFSLAVTQAGELVLGAPGGYFFLGLLARVPIENIISSYRPGTLLWHVSNQRFTYDNSNPVFFDGYRGYSVAVGEFDGDPSTTEYVSGAPTWSWTLGAVEILDSYYQPLHRLHGEQMASYFGHSVAVTDVNGDGRHDLLVGAPLYMESRADRKLAEVGRVYLFLQPKGPQALSTPTLLLTGTQLYGRFGSAIAPLGDLNRDGYNDIAVAAPYGGPSGQGQVLIFLGQSEGLSPRPSQVLDSPFPTGSGFGFSLRGAVDIDDNGYPDLIVGAYGASKVAVYRAQPVVMATVQLMVQDSLNPTLKNCVLDQTKTPVSCFNIQMCVGATGHNIPQKLHLKAELQLDLQKPRQGRRVLLLASQQASLTLSLDLGGRDKPICHTTGAFLRDEADFRDKLSPIVLSLNVSLPPEETGGAPAVVLHGETHVQEQTRIILDCGEDDLCVPQLRLTATAGDSPLLIGADNVLELKIEAANDGEGAYEAELAVHLPPGAHYMRALSNIEGFERLVCTQKKENESRVALCELGNPMKKDTRIGITMLVSVENLEEAGESVSFQLQVRSKNSQNPNSKVVMLPVAIQAEATVELRGNSFPASLVVAAEEGDREQEDLDRWVSRLEHTYELHNIGPGTVNGLRLLIHIPGQSQPSDLLYILDVQPQGGLLCSTQPSPKVDWKLSTPSPSSIRPVHHQRERRQAFLQGPKPGQQDPVLVSCDGSASCTVVECELREMVRGQRAMVTVQVMLGLSSLRQRPQEQFVLQSHAWFNVSSLPYSVPVVSLPSGQARVQTQLLRALEERAIPVWWVLVGVLGGLLLLTLLVLAMWKAGFFKRNRPPLEEDEEEE

These molecules were tested against T1, signal peptide sequence-deleted mouse LOTUS having streptavidin-binding protein (SBP)- and FLAG-tag at the N terminus (SBP-FLAG-LOTUS), overexpressed in Neuro2A cells (mouse) (assay: affinity purification with mass spectrometry; lysates (1% Nonidet P-40, 137 mM NaCl, 20 mM Tris-Cl pH 7.5) of Neuro2A cells overexpressing SBP-FLAG-LOTUS applied to streptavidin resins; SDS-PAGE bands excised, in-gel digestion, LC-MS/MS).
“Teneurin-3 (endogenous, Neuro2A cells) (from UniProt Q9WTS6 1-2715)” was tested, and the binding was “binds”.
For “Teneurin-4 (endogenous, Neuro2A cells) (from UniProt Q3UHK6 1-2771)”, the binding was “binds”.
With “Protocadherin-16 (endogenous, Neuro2A cells) (from UniProt E9PVD3 36-3291)” the binding was “binds”.
In the case of B1, the binding is reported as “binds”.
With B2 the binding was “binds”.
